PubChem BioAssay AID1259425, University of Nebraska Medical Center | 2018

- Screen: 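Seek colon cancer weak points whose silencing resembles KSR1 loss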 (primary screen)
- Cells: HCT116 human colon cancer cells
- Reagent: siRNA pool against human genes, 50 nM siRNA
- Read-out: 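mRNA of six signature genes measured together by branched-DNA assay after 50 nM siRNA pool, blank removed, divided by geometric mean of two housekeeping genes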
- Direction: BNIP3L mRNA: higher = more BNIP3L transcript after knockdown
Shown is one part, drawn at random, of about 14,000 reagents tested. Not all columns of the deposit are shown. Not stated in the record: the time to read-out.

With knock-down of TBCC (tubulin folding cofactor C) the results were BNIP3L mRNA, set 1 = 0.148.
Against EREG (epiregulin) the deposit lists BNIP3L mRNA, set 1 = 0.0643.
Knock-down of LINC00652 (long independently transcribed non-coding RNA 652) came out at: BNIP3L mRNA, set 1 = 0.11.
RNF128 (ring finger protein 128) scored BNIP3L mRNA, set 1 = 0.131.
Depletion of NEK2 (NIMA related kinase 2) gave: BNIP3L mRNA, set 1 = 0.0576.
With knock-down of P2RX4 (purinergic receptor P2X 4), the record shows BNIP3L mRNA, set 1 = 0.0815.
GMDS (GDP-mannose 4,6-dehydratase) showed BNIP3L mRNA, set 1 = 0.0975.
After knock-down of SVOP (SV2 related protein) the results were BNIP3L mRNA, set 1 = 0.0712.
IL1RAPL1 (interleukin 1 receptor accessory protein like 1) scored BNIP3L mRNA, set 1 = 0.0584.
Against BHMT (betaine--homocysteine S-methyltransferase), the values are BNIP3L mRNA, set 1 = 0.0705.
Against SLC12A2, the values are BNIP3L mRNA, set 1 = 0.0405.
Against ABHD4 (abhydrolase domain containing 4, N-acyl phospholipase B), the values are BNIP3L mRNA, set 1 = 0.101.
With knock-down of PPP4R3A (protein phosphatase 4 regulatory subunit 3A) the results were BNIP3L mRNA, set 1 = 0.036.
After knock-down of TLR2 (toll like receptor 2), the record shows BNIP3L mRNA, set 1 = 0.0877.
F13A1 (coagulation factor XIII A chain) showed BNIP3L mRNA, set 1 = 0.138.
For SCML2 (Scm polycomb group protein like 2), the entry reads BNIP3L mRNA, set 1 = 0.213.
With knock-down of RPS27A (ribosomal protein S27a), the screen gave BNIP3L mRNA, set 1 = 0.145.
Knock-down of ELOF1 (elongation factor 1) resulted in: BNIP3L mRNA, set 1 = 0.211.
For AGK (acylglycerol kinase) the deposit lists BNIP3L mRNA, set 1 = 0.0758.

Taken from above:
For “BNIP3L mRNA, set 1”, SCML2 (Scm polycomb group protein like 2) shows 0.213
Value for GMDS (GDP-mannose 4,6-dehydratase) in “BNIP3L mRNA, set 1”: 0.0975
